This is one part of the list. The main result of the screen is listed elsewhere. These columns were measured beside it and carry no call. Most of these compounds were active or inconclusive in the main read-out, so they are no random draw. Potencies come from curve fits of mixed quality, noted in brackets.
Test: IkB Signaling
Conditions: ABC-DLBCL IkBa-CBG/CBR dual luciferase ratio (green luciferase fused to IkBa over red control in OCI-Ly3 lymphoma cells), 4 h
In short: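 Luminescence ratio of IκBα-fused green versus native red beetle luciferase in OCI-Ly3 cells, 4 h post-doxycycline with compound; red signal alone, scaled from basal (0%) to zero light (-100%), flagged nonspecific or cytotoxic effects.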

[1] = measured here: control luc red channel unless noted

With `Oc1[nH]c2ccccc2c1C=Nc1ccc2c(c1)OCCO2` the AC50 [1] was 3.98 µM [falling, full curve].

With `O=C(CC1CCCC1)Nc1nc2ccccc2[nH]1` the AC50 [1] was 12.6 µM [falling, partial curve].

In the case of `O=C(c1cc2c(s1)CCCC2)N1CCN(Cc2ccc3c(c2)OCO3)CC1`, the AC50 [1] is reported as 25.1 µM [falling, partial curve].

With `COc1ccc(-n2nc3c(N4CCCC(C(=O)NCc5ccc(C)cc5)C4)nnc(C)c3c2C)cc1` (centres undefined) the AC50 [1] was 20 µM [falling, partial curve].

With `Cc1sc2ncn(CC(=O)Nc3ccc(F)cc3F)c(=O)c2c1S(=O)(=O)N1CCC(C)CC1` the AC50 [1] was 5.01 µM [falling, full curve].

In the case of `Cc1c(-c2nnc(SCC(=O)Nc3ccccc3F)o2)nnn1-c1ccc(F)cc1`, the AC50 [1] is reported as 20 µM [falling, partial curve].

For `COc1ccc(CNC(=O)CCc2cn(C)c3ccccc23)cc1`, the AC50 [1] was 25.1 µM [falling, single point].

With `c1ccc2c(c1)CCN(c1nc3ccccc3n3cnnc13)C2` the AC50 [1] was 25.1 µM [falling, single point].

In the case of `Cc1ccc(CCNC(c2ccc(F)cc2)c2nnc(-c3ccccc3Cl)o2)cc1` (centres undefined), the AC50 [1] is reported as 31.6 µM [falling, single point].

In the case of `COc1cccc(N2CCN(S(=O)(=O)c3cn(C)c(C)n3)CC2)c1`, the AC50 [1] is reported as 0.00631 µM [falling, full curve, poor fit].

In the case of `CCOC(=O)N1CCN(C(=O)c2nc3ccccc3s2)CC1`, the AC50 [1] is reported as 0.316 µM [falling, full curve].

In the case of `CCCCN1C(=O)c2[nH]nc(-c3ccccc3O)c2C1c1ccc(C(C)(C)C)cc1` (centres undefined), the AC50 [1] is reported as 15.8 µM [falling, partial curve].

In the case of `O=C(Nc1cccc(Cl)c1)c1ccc2nc(CCc3ccccc3)oc2c1`, the AC50 [1] is reported as 10 µM [falling, partial curve].

In the case of `Cc1ccc(-c2nc3cc(Cl)ccc3o2)cc1NC(=O)c1cc([N+](=O)[O-])ccc1N1CCOCC1`, the AC50 [1] is reported as 1 µM [falling, full curve].

With `CCC(=O)N1CCc2cc(Br)cc(S(=O)(=O)N3CCC(C(=O)Nc4ccccc4CC)CC3)c21` the AC50 [1] was 25.1 µM [falling, single point].

With `COc1cccc(C2CC(=O)Nc3cc4c(cc32)OCO4)c1OC(C)C` (centres undefined) the AC50 [1] was 20 µM [falling, partial curve].

In the case of `CC(C)Oc1ccc(CNC(=O)C2CCN(c3nc4ccccc4nc3C(F)(F)F)CC2)cc1`, the AC50 [1] is reported as 25.1 µM [rising, single point].

With `CCc1nn(CCCC(=O)N2CCN(c3cc(Cl)ccc3C)CC2)c(=O)c2cc3occc3n12` the AC50 [1] was 15.8 µM [falling, partial curve].

For `CCOc1ccc2nc(NC(=O)C3CCCN(S(=O)(=O)c4c(C)noc4C)C3)sc2c1` (centres undefined), the AC50 [1] was 12.6 µM [falling, partial curve].

In the case of `CCOC(=O)N1CCC(N2CCN(S(=O)(=O)c3ccc(NC(C)=O)cc3)CC2)CC1`, the AC50 [1] is reported as 10 nM [rising, full curve] [measured here: IkB-luc green channel].

In the case of `C=CS(=O)(=O)c1ccc(Oc2ccc(S(=O)(=O)C=C)cc2)cc1`, the AC50 (measured here: IkB-luc green channel) is reported as 5.01 µM [falling, full curve, poor fit] and the AC50 (measured here: control luc red channel) is reported as 1.26 µM [falling, full curve].

In the case of `COc1ccc(CC(=O)NC2CC(=O)N(c3cccc(F)c3)C2)cc1OC` (centres undefined), the AC50 [1] is reported as 3.98 µM [falling, partial curve].

In the case of `Cc1ccc(C2=Nc3ccccc3N(CC(=O)Nc3ccccc3F)C(=O)C2)cc1C`, the AC50 [1] is reported as 31.6 µM [falling, partial curve].

With `Cc1c(C(=O)Nc2ccc(F)c(Cl)c2)oc2ccc(S(=O)(=O)N(C)C3CCCCC3)cc12` the AC50 [1] was 15.8 µM [falling, partial curve].

With `Cc1oc2ccc(O)c(CN3CCCCC3)c2c1C(=O)Nc1cccc(C(F)(F)F)c1` the AC50 [1] was 39.8 µM [falling, single point].

In the case of `O=C(Nc1cccc(Cl)c1)c1cnn2cccnc12`, the AC50 [1] is reported as 0.316 µM [rising, partial curve].

For `COCc1c(C(=O)OCC(=O)c2c(N)n(CC(C)C)c(=O)n(C)c2=O)oc2ccccc12`, the AC50 [1] was 31.6 µM [falling, partial curve].

In the case of `COc1ccccc1-c1nc(SCc2ccccn2)n[nH]1`, the AC50 [1] is reported as 0.000794 µM [falling, full curve].

With `Cc1cn2c(=O)cc(COc3ccc(NC(=O)c4ccccc4C)cc3)nc2s1` the AC50 [1] was 0.158 µM [rising, partial curve].

For `COc1ccc(C)cc1NC(=O)CSc1nnc(COc2ccccc2)n1Cc1ccco1`, the AC50 [1] was 15.8 µM [falling, partial curve].

For `CCCOc1ccc(-c2nc(N3CCCCC3)c3ccccc3n2)cc1`, the AC50 [1] was 5.01 µM [rising, full curve].

With `Cc1nn(C)c2c1c(C(F)(F)F)cc(=O)n2CC(=O)N1CCCCC1C` (centres undefined) the AC50 [1] was 39.8 µM [falling, single point].

In the case of `O=C(Nc1ccc(F)cc1F)C1CCN(S(=O)(=O)c2ccc3[nH]c(=O)ccc3c2)CC1`, the AC50 [1] is reported as 200 nM [rising, full curve] [measured here: IkB-luc green channel].

With `COc1cc(NC(=O)CCc2nc3cccnc3n2Cc2cccs2)cc(OC)c1OC` the AC50 [1] was 20 µM [falling, single point].

For `CCc1ccc(OCc2nc(-c3ccc(OC)c(OC)c3)no2)c(Br)c1`, the AC50 [1] was 39.8 µM [falling, single point].

With `O=C(CCc1nc2cccnc2n1-c1ccccc1)Nc1ccc(Cl)c(Cl)c1` the AC50 [1] was 31.6 µM [falling, partial curve].

For `CN(C)c1ccc(C2C=C(c3ccccc3)Nc3nnnn32)cc1` (centres undefined), the AC50 [1] was 0.316 µM [falling, full curve].

In the case of `COc1ccc(CNC(=O)CCNS(=O)(=O)c2cccc3nsnc23)cc1`, the AC50 [1] is reported as 2 µM [falling, partial curve].

With `O=C(NCCCN1CCOCC1)c1cc(-c2cccs2)on1` the AC50 [1] was 10 µM [rising, partial curve].

With `CCOc1ccccc1CNC(=O)c1ccc(NC(=O)N2CCSc3ncccc32)cc1` the AC50 [1] was 12.6 µM [falling, partial curve].

For `CN(C)c1ccc(N=Cc2ccco2)cc1`, the AC50 [1] was 3.98 µM [falling, full curve].

With `COc1ccc(OC)c(CNC(=O)Cn2nc(C)c3nn(-c4ccc(Cl)cc4)c(C)c3c2=O)c1` the AC50 [1] was 31.6 µM [falling, partial curve, poor fit].

In the case of `COc1ccc2oc(=O)c(-c3cn4c(n3)sc3cc(OC)ccc34)cc2c1`, the AC50 [1] is reported as 39.8 µM [falling, single point].

With `Clc1ccc(N2CCN(c3ncnc4c3cnn4-c3ccccc3)CC2)cc1Cl` the AC50 [1] was 25.1 µM [falling, single point].

With `Cc1ccc(NCc2nnc(SCC(=O)N(Cc3ccccc3)C(C)(C)C)o2)c(C)c1` the AC50 [1] was 20 µM [falling, single point].

In the case of `COc1ccc(NC(=O)c2cc(S(=O)(=O)N3CCCCCC3)cn2C)cc1Cl`, the AC50 [1] is reported as 5.01 µM [falling, full curve].

For `COc1ccc(N(Cc2cccs2)C(=O)c2ccc(C(C)(C)C)cc2)cc1`, the AC50 [1] was 15.8 µM [falling, partial curve].

With `COc1cc2[nH]c(=O)n(Cc3ccc(C(=O)N4CCN(c5cc(Cl)ccc5C)CC4)cc3)c(=O)c2cc1OC` the AC50 [1] was 10 µM [falling, partial curve].

With `O=C(NCC(c1ccc2c(c1)OCO2)N1CCOCC1)C(=O)Nc1ccc(F)cc1F` (centres undefined) the AC50 [1] was 2 µM [falling, full curve].

For `O=C(Cn1cnc2c(oc3ccccc32)c1=O)Nc1ccc(OC(F)(F)F)cc1`, the AC50 [1] was 2 µM [rising, partial curve].

With `CCOC(=O)CSc1nc2ccc(NC(C)=O)cc2s1` the AC50 [1] was 10 µM [falling, partial curve].

With `O=C(Nc1cccc(Cl)c1)N1CCC(CN2CCOCC2)CC1` the AC50 [1] was 39.8 µM [rising, single point].

For `Cc1cccc(CCNC(=O)c2cnc3c(C)cccn3c2=O)c1`, the AC50 [1] was 39.8 µM [falling, single point].

For `CC(C)(C)c1ccc(S(=O)(=O)c2cn(CC(=O)Nc3ccccc3)c3ccccc3c2=O)cc1`, the AC50 [1] was 1 µM [falling, partial curve].

For `Cc1ccc(CNC(=O)c2ccc3c(c2)N(Cc2ccccc2)C(=O)c2ccccc2S3(=O)=O)cc1`, the AC50 [1] was 10 µM [falling, partial curve].

In the case of `O=C(CCC1N=C2c3ccccc3N=C(SCc3ccccc3F)N2C1=O)NCCc1ccccc1` (centres undefined), the AC50 [1] is reported as 39.8 µM [falling, single point].

In the case of `CCn1c(SCc2ccc(F)cc2Cl)nnc1-c1nonc1NC(C)=O`, the AC50 [1] is reported as 15.8 µM [falling, partial curve].

For `CCOCC(=O)Nc1nc2ccc(OC)cc2s1`, the AC50 [1] was 15.8 µM [falling, partial curve].

For `Cc1cc2c(cc1C)NC(CC(=O)Nc1cccc(Cl)c1)C(=O)N2` (centres undefined), the AC50 [1] was 15.8 µM [falling, partial curve].

For `C=CCc1cccc2cc(C(=O)NCCc3c(C)[nH]c4c(C)cccc34)c(=O)oc12`, the AC50 [1] was 31.6 µM [falling, single point].

With `CCN(CC)c1ccc(NC(=O)CCc2nc3cccnc3n2Cc2cccs2)c(C)c1` the AC50 [1] was 0.631 µM [falling, full curve].

In the case of `O=C(NCC(c1ccc2c(c1)OCO2)N1CCOCC1)C(=O)Nc1ccccc1` (centres undefined), the AC50 [1] is reported as 20 µM [falling, single point].

For `CNc1ccc(-c2nc(-c3ccco3)no2)cc1[N+](=O)[O-]`, the AC50 [1] was 25.1 µM [falling, single point].
